Laboratory results reported in patent EP3502102A1, “STING INHIBITORS” (ECOLE POLYTECHNIQUE FEDERALE DE LAUSANNE (EPFL), priority 2017, dated 2019).
Numbering of substitutions follows the chain as printed. At least one structure is not confirmed: it was looked up by name or label, or the drawing left a doubt.

What was measured:
Flag-STING [1] = target: T1, Flag-STING (Mus musculus, UniProt Q3TBT3); assay: Protein mass spectrometry of immunoprecipitated Flag-STING; type: binding; conditions: Flag-STING; 1 µM, 30min
T1 construct: expressed in transfected cells; host or cells: HEK293T (lentiviral transduction, induced overnight)
T1 sequence (Q3TBT3 1-378): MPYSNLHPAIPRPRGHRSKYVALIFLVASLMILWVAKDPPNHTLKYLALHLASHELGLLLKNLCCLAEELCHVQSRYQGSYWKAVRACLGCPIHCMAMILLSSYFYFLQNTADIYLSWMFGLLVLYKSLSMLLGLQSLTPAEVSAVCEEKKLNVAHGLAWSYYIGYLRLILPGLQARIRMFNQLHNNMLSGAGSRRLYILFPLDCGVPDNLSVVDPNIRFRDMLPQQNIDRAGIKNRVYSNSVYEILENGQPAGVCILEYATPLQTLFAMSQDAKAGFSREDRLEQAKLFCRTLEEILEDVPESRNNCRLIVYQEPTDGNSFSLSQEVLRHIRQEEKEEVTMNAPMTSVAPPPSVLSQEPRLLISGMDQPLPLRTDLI

Flag-STING [2] = target: T2, Flag-STING (Mus musculus, UniProt Q3TBT3, C91S); assay: as above; type: binding; conditions: Flag-STING C91S; 1µM
T2 construct: expressed in transfected cells; host or cells: HEK293T (lentiviral transduction, induced overnight)
T2 sequence (Q3TBT3 1-378 C91S): T1 sequence (Q3TBT3 1-378) with C91S

STING = target: T3, STING (Mus musculus, UniProt Q3TBT3); assay: Blue native gel assay of STING clusters; type: cell-based; parameters: expressed in transfected cells; host or cells: HEK293T; conditions: C-178, C-176 1 µM, 2-BP 50 µM; CMA 1.5 h
T3 sequence (Q3TBT3 1-378): T1 sequence (Q3TBT3 1-378)
Protocol: Reporter activity was measured 16 h after compound treatment. A nonlinear regression analysis was performed. […] Circles indicate substitutes compared to C-176. d, e, Chemical compounds from (c) were tested at 0.5 µM for inhibitory activity in HEK293T cells transfected with STING (e) or RIG-I (f) in conjunction with IFN-• luciferase reporter, respectively. b, e, f, Values of inhibitor-treated cells were normalized to DMSO-treated cells. […] Cytokine levels were normalized to DMSO-treated control cells. A nonlinear regression analysis was performed for cGAMP stimulation. b, c, BMDMs were pre-treated with C-178 (0.25 µM) and stimulated with cGAMP, cyclic di-GMP, CMA, 90mer dsDNA or LPS for 3 h. The induction of Ifnb1 mRNA levels was assessed by RT-qPCR. d, Heatmaps of RNA sequencing analysis of BMDMs treated with DMSO or CMA and with or without addition of C-178. […] Reporter activity was measured 16 h after transfection and values were normalized to DMSO-treated control cells. c, BMDMs were treated with C-178 (0.25 µM) for 1 h, washed or left untreated and after an additional hour stimulated with cGAMP. […] Flag-STING was immunoprecipitated from whole cell lysate and analysed by autoradiography. In parallel, cell lysates were analysed by immunoblotting for p-TBK1 and STING. d, HEK293T cells expressing STING were treated as indicated (C-178 (1 µM)) and stimulated with CMA for 1.5 h. […]

O=C(Nc1ccc2c(c1)oc1ccccc12)c1ccc([N+](=O)[O-])o1 [C-178, N-dibenzo[b,d]furan-3-yl-5-nitro-2-furamide]
covalent modification of STING, mass shift (Flag-STING [1]): irreversibly modify STING
covalent binding to STING-C91S (Flag-STING [2]): absence of covalent binding
assembly of STING clusters (STING): blocked
